The values that follow come from PubChem BioAssay AID330 (DTP/NCI, 2004).

The list does not hold the whole screen: it gathers tests that were run many times, whatever their T/C, doses with no T/C, and many T/C values between a quarter and a half above the control. Further doses and runs are listed elsewhere. T/C is the treated group as % of the vehicle group. Some entries give survivors of the animals treated and no T/C: the source files T/C as zero there, which appears to mark a toxic dose or a test without result, not a measured value. Some doses without a T/C left all or most animals alive at the check, yet need not have been tolerated: the source hardly ever lists a survival T/C far under the control, and the zero likely stands for such cases as well. Counts of survivors are from the toxicity check (mostly the fifth day) where no day follows; animals may have died later. Schedule codes are those of the source, read here as Q, the interval in days (D) or hours (H), X, the number of doses. Some structures stand for samples that the source files as different forms (salt, stereo form or complex); doses refer to the form tested. Some doses were run more than once; their values stand side by side, smallest first. Where survival is the endpoint, this PubChem deposit counts one and a half times the control or more as active, and values a quarter to a half above the control carry no call in these data; other NCI protocols may use other cut-offs. Some T/C values are followed by the survivors on the day toxicity was checked, most often the fifth; where none is given, no animal had died by that day.

The test system of this test is P388 leukemia ip, CD2F1 mice, survival T/C. Put plainly: NCI In Vivo Anticancer Drug Screen. Data for tumor model P388 Leukemia (intraperitoneal) in CD2F1 (CDF1) mice. To be noted: T/C endpoint: median survival time, higher T/C = longer survival.
[1] abbreviates: dose: 2.0 mg/kg/injection, schedule: Q01DX009 (ip), vehicle: water.
The mark [2] stands for this setting: dose: 25.0 mg/kg/injection, schedule: Q01DX009 (ip), vehicle: saline with Tween-80.
Setting [3] is: dose: 50.0 mg/kg/injection, schedule: Q01DX009 (ip), vehicle: saline with Tween-80.
Setting [4] is: dose: 100.0 mg/kg/injection, schedule: Q01DX009 (ip), vehicle: saline with Tween-80.
Where [5] appears, read: dose: 50.0 mg/kg/injection, schedule: Q01DX009 (ip), vehicle: saline.
The mark [6] stands for this setting: dose: 100.0 mg/kg/injection, schedule: Q01DX009 (ip), vehicle: saline.
Setting [7] is: dose: 200.0 mg/kg/injection, schedule: Q01DX009 (ip), vehicle: saline.
Setting [8] is: dose: 50.0 mg/kg/injection, schedule: Q01DX009 (ip), vehicle: Klucel (hydroxypropylcellulose) (HPC).

`BrCC[P+](c1ccccc1)(c1ccccc1)c1ccccc1`: the T/C is, setting by setting: (dose: 1.3 mg/kg/injection, schedule: Q01DX009 (ip), vehicle: water) 127 % of control; under setting [1], 125 % of control; (dose: 3.13 mg/kg/injection, schedule: Q01DX009 (ip), vehicle: water) 127 % of control. Also, the survivor count is recorded as 6 of 6 (dose: 4.5 mg/kg/injection, schedule: Q01DX009 (ip), vehicle: water); 4 of 6 (dose: 6.8 mg/kg/injection, schedule: Q01DX009 (ip), vehicle: water); 0 of 6 (dose: 12.5 mg/kg/injection, schedule: Q01DX009 (ip), vehicle: water); 0 of 6 (dose: 25.0 mg/kg/injection, schedule: Q01DX009 (ip), vehicle: water).
`C=C1C(=O)C23[C@H](O)C1CC[C@H]2[C@]12COC3(O)[C@@H](O)[C@@H]1C(C)(C)CC[C@@H]2O`: the survivor count reads like this: (dose: 4.5 mg/kg/injection, schedule: Q01DX009 (ip), vehicle: saline with Tween-80) 3 of 6; (dose: 36.0 mg/kg/injection, schedule: Q01DX009 (ip), vehicle: saline with Tween-80) 0 of 6; under setting [3], 0 of 3; under setting [4], 0 of 3. The T/C is, setting by setting: (dose: 12.0 mg/kg/injection, schedule: Q01DX009 (ip), vehicle: saline with Tween-80) 127 % of control; (dose: 18.0 mg/kg/injection, schedule: Q01DX009 (ip), vehicle: saline with Tween-80) 128 and 131 % of control; under setting [2], 125 % of control.
On to `CC(=O)NC(/C=C/c1ccc(Cl)c(Cl)c1)c1cccc(O)c(=O)c1` (stereo unspecified), for which the survivor count under setting [5] is on record as 6 of 6, the survivor count under setting [6] is on record as 1 of 6 and the survivor count under setting [7] is 2 of 6.
Take `CC[C@@H]1C[C@H]2CN(CCc3c([nH]c4ccccc34)[C@@](C(=O)OC)(c3cc4c(cc3OC)N(C)[C@H]3[C@@](O)(C(=O)OC)[C@H](OC(C)=O)[C@]5(CC)CCCN6CC[C@]43[C@@H]65)C2)C1`: the T/C is 129 % of control (dose: 0.5 mg/kg/injection, schedule: Q01DX009 (ip), vehicle: saline with Tween-80); 138 % of control (dose: 1.0 mg/kg/injection, schedule: Q01DX009 (ip), vehicle: saline with Tween-80); 125 and 135 % of control (dose: 1.0 mg/kg/injection, schedule: Q01DX009 (ip), vehicle: water); 133 and 141 % of control under setting [1]; 132 % of control (dose: 4.0 mg/kg/injection, schedule: Q01DX009 (ip), vehicle: water).
Turning to `CN=C(NC)c1ccc(NC(=O)c2cc(C)cc(C(=O)Nc3ccc(C(=NC)NC)cc3)c2)cc1`, the survivor count (dose: 50.0 mg/kg/injection, schedule: Q01DX005 (ip), vehicle: saline with Tween-80) is given as 0 of 6; the survivor count (dose: 100.0 mg/kg/injection, schedule: Q01DX005 (ip), vehicle: saline with Tween-80) is 0 of 6; the survivor count (dose: 200.0 mg/kg/injection, schedule: Q01DX005 (ip), vehicle: saline with Tween-80) is listed as 0 of 6.
`COc1cc(-c2ccc(Nc3ccccc3C(=O)O)c(OC)c2)ccc1N`: the survivor count (dose: 300.0 mg/kg/injection, schedule: Q04DX003 (ip), vehicle: saline with Tween-80) is 6 of 6.
Take `C=C(C)C(=NC(C)(C)C)N(C(C)C)C(C)C`: the survivor count is 6 of 6 (dose: 12.5 mg/kg/injection, schedule: Q01DX009 (ip), vehicle: saline with Tween-80); 5 of 6 under setting [2]; 2 of 5 (dose: 50.0 mg/kg/injection, schedule: Q01DX005 (ip), vehicle: Klucel (hydroxypropylcellulose) (HPC)); 6 of 6 under setting [3]; 0 of 6 under setting [5]; 0 of 5 (dose: 100.0 mg/kg/injection, schedule: Q01DX005 (ip), vehicle: Klucel (hydroxypropylcellulose) (HPC)). In addition, the survivor count reads like this: under setting [4], 0 of 6 and 4 of 6; under setting [6], 0 of 6; (dose: 200.0 mg/kg/injection, schedule: Q01DX005 (ip), vehicle: Klucel (hydroxypropylcellulose) (HPC)) 0 of 5; (dose: 200.0 mg/kg/injection, schedule: Q01DX009 (ip), vehicle: saline with Tween-80) 0 of 6.
Consider `Cc1c2ccncc2c(C)c2c1[nH]c1ccc(O)cc12`, for which the T/C by setting is: (dose: 1.56 mg/kg/injection, schedule: Q01DX009 (ip), vehicle: suspension in saline) 138 % of control [4 of 6 alive]; (dose: 3.12 mg/kg/injection, schedule: Q01DX009 (ip), vehicle: saline) 138 % of control [4 of 6 alive]; (dose: 3.12 mg/kg/injection, schedule: Q01DX009 (ip), vehicle: suspension in saline) 148 % of control. Moreover, the survivor count (dose: 25.0 mg/kg/injection, schedule: Q01DX009 (ip), vehicle: saline) was 6 of 6.
Regarding `COc1cc(C)c(C(=O)Oc2cc(C)c(C(=O)O)c(O)c2)c(O)c1`, the survivor count under setting [7] was 3 of 3.
As to `O=C1C2=C(Nc3cc([N+](=O)[O-])ccc3N2)OC1c1ccccn1` (stereo unspecified), the T/C (dose: 60.0 mg/kg/injection, schedule: Q01DX005 (ip), vehicle: Klucel (hydroxypropylcellulose) (HPC)) is 132 % of control and the T/C (dose: 120.0 mg/kg/injection, schedule: Q01DX005 (ip), vehicle: Klucel (hydroxypropylcellulose) (HPC)) is 133 % of control. Further, the survivor count (dose: 240.0 mg/kg/injection, schedule: Q01DX005 (ip), vehicle: Klucel (hydroxypropylcellulose) (HPC)) is 2 of 6.
As for `COC1OCC2(C)OC(c3ccccc3)=NC2C1O` (stereo unspecified), the survivor count (dose: 400.0 mg/kg/injection, schedule: Q04DX002 (ip), vehicle: Klucel (hydroxypropylcellulose) (HPC)) is reported as 0 of 6.
`c1cc[c]([Sn]([O][Sn]([c]2ccccc2)([c]2ccccc2)[c]2ccccc2)([c]2ccccc2)[c]2ccccc2)cc1`: the survivor count by setting is: (dose: 1.56 mg/kg/injection, schedule: Q04DX003 (ip), vehicle: Klucel (hydroxypropylcellulose) (HPC)) 6 of 6; (dose: 6.25 mg/kg/injection, schedule: Q04DX003 (ip), vehicle: Klucel (hydroxypropylcellulose) (HPC)) 6 of 6; (dose: 12.5 mg/kg/injection, schedule: Q04DX003 (ip), vehicle: saline with Tween-80) 0 of 6; (dose: 25.0 mg/kg/injection, schedule: Q04DX003 (ip), vehicle: saline with Tween-80) 0 of 6; (dose: 100.0 mg/kg/injection, schedule: Q04DX003 (ip), vehicle: saline with Tween-80) 0 of 6; (dose: 200.0 mg/kg/injection, schedule: Q04DX003 (ip), vehicle: saline with Tween-80) 0 of 6. The survivor count (dose: 400.0 mg/kg/injection, schedule: Q04DX003 (ip), vehicle: saline with Tween-80) was 0 of 6.
With `CCCCCCCCCCCCCCCCS(=O)(=O)c1ccc(NN)cc1`, under setting [8], the survivor count is 6 of 6.
With `CCOP(=O)(O)C1CCCC(C)[N-]1.CCOP(=O)(O)C1CCCC(C)[N-]1.[Fe+2]` (stereo unspecified), the survivor count is, setting by setting: (dose: 200.0 mg/kg/injection, schedule: Q04DX003 (ip), vehicle: Klucel (hydroxypropylcellulose) (HPC)) 5 of 6; (dose: 400.0 mg/kg/injection, schedule: Q04DX003 (ip), vehicle: Klucel (hydroxypropylcellulose) (HPC)) 6 of 6.
As to `CNC(=O)OCc1c(COC(=O)NC)c(-c2ccc(Cl)c(Cl)c2)n2c1CCC2`, the T/C runs as follows: (dose: 12.5 mg/kg/injection, schedule: Q01DX009 (ip), vehicle: Klucel (hydroxypropylcellulose) (HPC)) 136 % of control; (dose: 25.0 mg/kg/injection, schedule: Q01DX009 (ip), vehicle: Klucel (hydroxypropylcellulose) (HPC)) 149 % of control. Further, the survivor count reads like this: under setting [8], 6 of 6; (dose: 100.0 mg/kg/injection, schedule: Q01DX009 (ip), vehicle: Klucel (hydroxypropylcellulose) (HPC)) 6 of 6; (dose: 200.0 mg/kg/injection, schedule: Q01DX009 (ip), vehicle: Klucel (hydroxypropylcellulose) (HPC)) 4 of 6.
With `O=C1C(c2ccccc2)=c2c(c3ccccc3c3ccccc23)=C1c1ccccc1`, the survivor count (dose: 200.0 mg/kg/injection, schedule: Q01DX005 (ip), vehicle: Klucel + Tween-80) was 6 of 6.
